# Measured values published in US20260355142A1, “AMORPHOUS OTE[…] COMPOSITIONS AND USES THEREOF AND DOSAGE REGIMENS FOR OTENAPROXESUL” (ANTIBE THERAPEUTICS INC., priority 2022, published 2026).
# Experiment: H2S release / formulation stability in simulated intestinal fluid
# Conditions: SIF, 37° C., 1 mg/ml
# Experimental: Assay design: 1 mg of exemplary ASD no. 1 and crystalline otenaproxesul were weighed in separate glass vials. SIF was added to prepare a 1 mg/ml solution which was incubated at 37° C. with 5% CO2. 120 μl was removed at 0.5, 1, 2, 3, 4 and 8 hrs and quenched in DPD (N,N-dimethyl-p-phenylenediamine sulfate) and FeCl3 solutions. A calibration curve was prepared to quantify amount of H2S released. A blank and 10 mM stock was also analyzed. The methylene blue was analyzed using HPLC.
compound,measurement,setting,value
COc1ccc2cc([C@H](C)C(=O)Oc3ccc(C(N)=S)cc3)ccc2c1 [crystalline otenaproxesul],"H2S release, initial",,did not release significant H2S initially
same,H2S release,8 h,8.5 µM
